Hit rate of the full screen: of about 2,000 compounds, about 45 (2%) were called active.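 Rule for the calls: active = inhibition above the screen-wide mean inhibition plus 3 SD (cut at about 44% in these data); inactive = the rest.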 Some of the results follow.

The chains behind the UniProt entries cited, without tags or fusion partners. Where a name states a change or a piece, a line headed by the entry shows the natural chain unless it says otherwise.
UniProt O60240: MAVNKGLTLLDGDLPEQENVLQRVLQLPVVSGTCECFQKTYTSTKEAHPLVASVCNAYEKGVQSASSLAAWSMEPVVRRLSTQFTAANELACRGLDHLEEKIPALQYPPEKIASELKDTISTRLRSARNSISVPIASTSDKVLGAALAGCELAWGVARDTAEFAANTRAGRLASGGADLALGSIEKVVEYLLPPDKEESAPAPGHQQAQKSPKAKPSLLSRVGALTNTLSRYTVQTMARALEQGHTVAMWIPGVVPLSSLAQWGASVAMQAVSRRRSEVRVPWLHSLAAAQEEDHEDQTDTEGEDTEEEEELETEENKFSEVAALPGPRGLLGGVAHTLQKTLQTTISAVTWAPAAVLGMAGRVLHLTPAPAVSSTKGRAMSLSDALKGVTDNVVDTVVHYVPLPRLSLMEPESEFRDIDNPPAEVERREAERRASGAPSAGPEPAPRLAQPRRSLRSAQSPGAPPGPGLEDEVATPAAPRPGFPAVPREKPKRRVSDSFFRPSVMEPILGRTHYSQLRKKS
UniProt Q8WTS1: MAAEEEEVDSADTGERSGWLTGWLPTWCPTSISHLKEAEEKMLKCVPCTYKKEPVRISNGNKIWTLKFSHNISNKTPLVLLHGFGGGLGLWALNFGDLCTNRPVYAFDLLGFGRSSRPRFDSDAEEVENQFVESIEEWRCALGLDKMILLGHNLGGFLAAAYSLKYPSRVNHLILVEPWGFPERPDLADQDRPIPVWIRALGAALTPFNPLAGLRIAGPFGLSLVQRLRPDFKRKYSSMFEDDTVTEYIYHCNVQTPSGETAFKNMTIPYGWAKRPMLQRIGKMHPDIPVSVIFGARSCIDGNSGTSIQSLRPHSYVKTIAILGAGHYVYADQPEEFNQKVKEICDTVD

This experiment has as its target Perilipin-1 (Homo sapiens) + 1-acylglycerol-3-phosphate O-acyltransferase ABHD5 (Homo sapiens) (UniProt O60240+Q8WTS1). Nature of the experiment: ABHD5-PLIN1 interaction inhibitors, pilot screen, cell lysate, split luciferase complementation, luminescence, NIH validation set (AID 493027).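 Note: 0% = DMSO wells with the 100% control not disclosed.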 The note with it: split G. princeps luciferase complementation, 4 h; at 7.9 µM, stronger effect = higher value.
As for `CC(=O)N1c2ccccc2C(C)=CC1(C)C`, the inhibition was inactive: -3.84%.
As for `CCOCc1cc(C)[nH]c(=O)c1C#N`, the inhibition was inactive: 2.72%.
`CC(=O)[C@H]1CC[C@H]2[C@@H]3C[C@H](C)C4=CC(=O)CC[C@]4(C)[C@H]3[C@@H](O)C[C@]12C`: the inhibition was inactive: 7.25%.
Take `CC(C)CC1c2[nH]c3ccccc3c2CCN1C(=O)CCC(=O)N(C)C` (stereo not drawn): the inhibition is inactive: -7.63%.
Regarding `CCCCNC(=O)NS(=O)(=O)c1ccc(C)cc1`, the inhibition is inactive: -10.7%.
Turning to `C[C@]12CC[C@@H]3c4cc(O)c(O)cc4CC[C@H]3[C@@H]1CC[C@@H]2O`, the inhibition is inactive: 19%.
As for `COc1cccc2c(O)cc(=O)n(C)c12`, the inhibition is inactive: -4.98%.
With `COc1ccc2nc(NC(=O)Nc3ccccc3)sc2c1`, the inhibition is inactive: -1.58%.
As for `COC(=O)c1cc(OC)c(OC)c(OC)c1[N+](=O)[O-]`, the figure is inactive: 6.03%.
Turning to `CC(=O)Nc1cc(O)cc(O)c1`, the inhibition was inactive: -10.7%.
In the case of `Cc1ccc(C(=O)NCCNC(=O)c2ccccc2)cc1` it was inactive: -6.98%; in that of `CNCCC(Oc1ccc(C(F)(F)F)cc1)c1ccccc1` (stereo not drawn), inactive: -3.18%; in that of `Cc1nnc(SCC(=O)N2CCCC(C(=O)c3ccc(Cl)cc3)C2)o1` (stereo not drawn), inactive: 2.47%.
As for `Cc1cc(C)c2c(CCl)cc(=O)oc2c1`, the figure is inactive: 2.6%.
Regarding `Cc1coc2c1c(C)cc1oc(=O)c(Cc3ccccc3)c(C)c12`, the inhibition is inactive: -3.62%.
As to `Cc1ccc2nc3c(cc(C(=O)NCC4CCCO4)c(=N)n3CCCOC(C)C)c(=O)n2c1` (stereo not drawn), the inhibition is inactive: 6.09%.
As for `Fc1ccccc1CNCCC(Cc1ccccc1)c1ccc2c(c1)OCO2` (stereo not drawn), the figure is inactive: -12.2%; as for `CCC1CCc2c(sc(NC(=O)c3cccnc3)c2C(N)=O)C1` (stereo not drawn), inactive: -0.06%.
As for `Cn1c([N+](=O)[O-])cnc1COC(N)=O`, the figure is inactive: -13.3%; as for `COc1cc(C(=O)CCN2CCC(c3ccccc3)C2)cc(OC)c1OC` (stereo not drawn), inactive: 16.9%; as for `Cc1ccccc1-c1coc2cc(O)ccc2c1=O`, inactive: 9.8%.
As for `COc1ccc(C(=O)Nc2ccc(OC)c([N+](=O)[O-])c2)cc1Br`, the figure is inactive: 0.74%.
Regarding `COc1cc(C2Nc3ccccc3NC3=C2C(=O)CC(c2ccc(OC)c(OC)c2)C3)ccc1O` (stereo not drawn), the inhibition is inactive: 2.86%.
Take `CCOC(=O)C(=Cc1ccccc1OC)C(=O)OCC`: the inhibition was inactive: 41.2%.
In the case of `Cc1cccc(C2=N/C(=C\c3cccnc3)C(=O)O2)c1` it was inactive: -12.9%; in that of `COc1ccc(C2C(C(=O)c3ccco3)=C(O)C(=O)N2CC2CCCO2)cc1` (stereo not drawn), inactive: -5.42%; in that of `CS(=O)c1ccccc1O` (stereo not drawn), inactive: 5.17%.
As for `COC(=O)c1ccc(COc2ccc3c(C)c(C)c(=O)oc3c2C)o1`, the figure is inactive: 1.92%.

These data come from PubChem BioAssay AID493027 (The Scripps Research Institute Molecular Screening Center, 2011).
